Some entries share one result that the patent states for a list of compounds.
Tested on: MBT2 tumors
Assay: MBT2 syngeneic bladder cancer mouse model, combination with anti-PD-1
Type: in vivo
From the text: This is a very aggressive and fast-growing tumor model, and is very difficult to overcome tumor progression with drug treatment.
Treatment with isotype control was used as a control group (data not shown).
Percent tumor growth delay (% TGD) is defined as the increase in the median time to endpoint in a treatment group compared to the untreated control, expressed as a percentage of the median time to endpoint (TTE) of the control:
T=median TTE for treatment

B1: Ab2: isoform-selective inhibitor of TGFβ1 activation; VH SEQ ID NO: 13, VL SEQ ID NO: 15; human IgG4 (antibody, V domains shown)
VH: EVQLLESGGGLVQPGGSLRLSCAASGFTFADYAMTWVRQAPGKGLEWVSAISGSGAATYFADSVKGRFTISRDNSKNTLYLQMNSLRAEDTAVYYCARVSSGHWDFDYWGQGTLVTVSS
VL: DIQLTQSPSSLSASVGDRVTITCRASQSISSYLNWYQQKPGKAPKLLIYAASNLQSGVPSRFSGSGSGTDFTLTISSLQPEDFATYYCQQTYTVPLTFGGGTKVEIK
modifications: human IgG4 constant regions
In the case of B1, the “Median tumor volume at day 15” value (3 mg/kg in combination with anti-PD1) is reported as no less than 1000 mm^3, the “Median tumor volume at day 15” value (10 mg/kg in combination with anti-PD1) is reported as no more than 700 mm^3 and the “Time to reach a tumor volume of 1024 mm^3” value (Ab3 10 or 30 mg/kg, Ab2 3 or 10 mg/kg with anti-PD-1, or PD-1 alone) is reported as “up to 28 days”.

Source: patent US20210340238A1, “TGFß1 INHIBITORS AND USE THEREOF” (Scholar Rock, Inc., priority 2018, published 2021)
